According to patent US8399520B2, “Selective estrogen receptor modulator” (Eisai R&D Management Co., Ltd., priority 2002, dated 2013):

System: MCF-7 breast cancer cells
Experiment: MCF-7 growth analysis (estrogen agonist and antagonist activity, MTT assay)
Format: cell-based
Conditions: Homo sapiens, MCF7, MCF-7 growth with 17β-estradiol (10 pM) present simultaneously, 72 hours
Description: Test Example 2 determines the estrogen agonist and antagonist activities of the compound according to the present invention in reproduction system cells. […] The present test was carried out according to the following procedures. MCF-7 breast cancer cells were cultured in the preservation medium until the compound evaluation. The preservation medium is the MEM (minimum essential medium, phenol red-free, Gibco, ##51200-038) supplemented with 10% (volume/volume) fetal bovine serum (FBS), 2 mM L-glutamine, 1 mM sodium pyruvate, non-essential amino acids (0.1 mM, Gibco, #15240-062), and antibiotic-antimycotic solution ( 1/50 of culture medium volume, Gibco). Five days prior to analysis, the preservation medium was exchanged with analytical medium to which 10% charcoal-stripped fetal bovine serum (charcoal-FBS) was added instead of 10% FBS, so as to deprive the MCF-7 cells of endogenous steroids. Twenty-four hours after exchange to the analytical medium, the MCF-7 cells were removed from the preservation flask using cell isolation medium (trypsin-EDTA solution, Gibco). The cells were washed with analytical medium once, and cell suspension at 50,000 cell/ml was prepared using the analytical medium. […] For each well of the microculture, the optical density at 590 nm due to the dissolved formazan crystals was measured. […]

- IC50: 86.1 nM
SMILES: CC/C(=C(\c1ccccc1)c1ccc(OCCN(C)C)cc1)c1ccccc1 [Comparative Example, Tamoxifen, reference compound]
